In this assay the target is GST-cIAP1 (UniProt Q13490). The experiment in a line: pull-down.

The chains behind the UniProt entries cited, without tags or fusion partners.
UniProt Q13490: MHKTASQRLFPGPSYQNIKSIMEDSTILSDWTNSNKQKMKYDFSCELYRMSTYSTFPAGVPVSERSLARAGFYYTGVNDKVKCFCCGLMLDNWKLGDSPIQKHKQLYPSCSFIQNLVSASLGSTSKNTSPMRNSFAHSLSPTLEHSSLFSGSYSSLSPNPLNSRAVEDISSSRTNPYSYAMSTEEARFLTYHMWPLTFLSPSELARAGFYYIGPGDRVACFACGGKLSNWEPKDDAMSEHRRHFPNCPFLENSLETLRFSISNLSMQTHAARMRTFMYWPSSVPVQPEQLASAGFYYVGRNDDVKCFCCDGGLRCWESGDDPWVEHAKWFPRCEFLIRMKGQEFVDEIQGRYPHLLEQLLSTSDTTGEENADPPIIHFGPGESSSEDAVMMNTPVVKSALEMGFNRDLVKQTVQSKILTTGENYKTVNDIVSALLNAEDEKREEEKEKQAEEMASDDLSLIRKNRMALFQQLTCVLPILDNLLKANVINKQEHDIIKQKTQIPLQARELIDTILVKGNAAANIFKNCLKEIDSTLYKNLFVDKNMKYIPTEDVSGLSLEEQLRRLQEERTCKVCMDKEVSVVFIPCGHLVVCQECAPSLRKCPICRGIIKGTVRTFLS

No constants are given. Whether binding was seen depends on the method and setting. In cells and extracts the contact can be indirect. Some results given as binding are weak or reduced against the parent protein; the word gives no strength. Sequences can lack the tags named with a protein.

B1: Venus-flag (VF)-tagged LKB1 kinase domain C-lobe truncation (CL, 132-347aa) (domain or fragment, UniProt Q15831 132-347)
chain: CVCGMQEMLDSVPEKRFPVCQAHGYFCQLIDGLEYLHSQGIVHKDIKPGNLLLTTGGTLKISDLGVAEALHPFAADDTCRTSQGSPAFQPPEIANGLDTFSGFKVDIWSAGVTLYNITTGLYPFEGDNIYKLFENIGKGSYAIPGDCGPPLSDLLKGMLEYEPAKRFSIRQIRQHSWFRKKHPPAEAPVPIPPSPDTKDRWRSMTVVPYLEDLHGA
As for B1, the binding result was “binds”.

These data come from article doi:10.1101/2021.09.17.460294.
